# Reference: US6057294A, “Peptide” (Northern Sydney Area Health Service of Pacific Highway, priority 1995, dated 2000)
# At least one peptide structure holds a part that was inferred or is arguable (an end, a ring closure or a residue). Some compounds share one wording; it may come from a single statement. Ends that are not written are not given here.
# Columns and labels:
# [1] = system: adjuvant induced arthritis in rats; experiment: Adjuvant induced arthritis in rats; type: in vivo, rat; conditions: for EFFECT: peptides 7 mg/rat, CS 50 mg/kg, DXM 2 mg/kg, given with MTB adjuvant
# [2] = system: 2B4.11 T-cell activation (IL-2 production); experiment: Antigen presentation assay (IL-2 production by 2B4.11 T-cells, CTLL proliferation readout); type: cell-based; conditions: 10 μM to 100 μM
# Excerpt: An antigen presentation assay (described below) examined the ability of a number of peptides to inhibit T-cell activation following antigen recognition, by measuring the product of T-cell activation, Interleukin-2 (IL-2).
# Material. The following cell lines were used: 2B4.11, a T-cell hybridoma that expresses a complete antigen receptor on the cell surface (Samelson et al., 1983) and produces IL-2 following antigen recognition (cytochrome c). Interleukin-2 dependent T-cell line (CTLL) for conventional biological IL-2 assays; and the B-cell hybridoma cell line LK 35.2 (LK, I-E^k bearing; Kappler et al., 1982) which acts as the antigen presenting cell. The hybridomas were grown in TCM. Cytochrome c (Sigma, USA) was added in the media to give a final concentration of 50 μM in the antigen presenting assay.
# Peptides examined included: core peptide, seven other control peptides from a variety of sources having an equivalent length to core peptide and peptides A, B, C, D, E and F. The final concentration of the peptides in the antigen presentation assay was examined at several levels ranging from 10 μM to 100 μM.
# Method. For T-cell antigen stimulation 2×10^4 LK35.2 cells were co-cultured with 50 μM pigeon cytochrome c dissolved in PBS and 2×10^4 2B4.11. T-cells for 16 hr. The assay was done in triplicate. Supernatants were recovered and IL-2 content determined by CTLL proliferation. The incorporation of ^3 H-thymidine is directly proportional to the amount of IL-2 present in the supernatant. The ability of different peptides to inhibit IL-2 production was examined. In addition to measuring ^3 H-thymidine incorporation, IL-2 measurements (IU/ml) were also determined.
# Material. Lipopeptides examined included: core peptide Tris-monopalmitate (100 μM and 0.1% DMSO) and core peptide Tris-tripalmitate (100 μM and 0.2% DMSO). The final concentration of the two lipopeptides in the antigen stimulation assay is shown in brackets respectively.
# Method. As described in Example 9.
Substance,EFFECT [1],effect on T-cell activation / IL-2 production [2],effect on adjuvant arthritis ([1]; comparison among peptides)
LDILLLEV-OH [D],No effect,variable and minor effect,
LGILLLGV-OH [Peptide B],No effect,variable and minor effect,no effect
"LKILLLRV [Peptide C, Leu-Lys-IIe-Leu-Leu-Leu-Arg-Val-OH]",Protective,,
LRILLLIKV-OH [E],Protective,variable and minor effect,
"LRLLLKV-OH [F, Leu-Arg-Leu-Leu-Leu-Lys-Val-OH]",Protective,variable and minor effect,
"MGLRILLL [A, Met-Gly-Leu-Arg-IIe-Leu- Leu-Leu-OH]",Protective,variable and minor effect,
